The structures appear in SMILES notation.

This assay deals with Male Sprague-Dawley rats. The settings on record: administered s.c. immediately after the sampling phase; tested after a three-hour delay.

Consider `CN1[C@@H]2C[C@@H](OC(=O)[C@H](CO)c3ccccc3)C[C@H]1[C@@H]1O[C@@H]12` [Scopolamine, scopolamine], for which the “retention (errors in the retention session)” value is reported as “disrupted retention after a three-hour delay in a dose-related fashion”.
